Source: patent publication EP4650362A1, “NEUROPROTECTIVE PSD-95 POLYPEPTIDE INHIBITOR AND USE THEREOF” (Beijing Tuo Jie Biopharmaceutical Co. Ltd., priority 2023, dated 2024)
Part of at least one peptide drawing is inferred or uncertain, most often the ends. Non-standard residues stand in square brackets, D forms with d. Residues, ends and D or L forms follow the SMILES beside them. Tle = CC(C)(C)[C@H](N)C(=O)O; Dab = NCC[C@H](N)C(=O)O; Aib = CC(C)(N)C(=O)O

Tested on: rat tMCAO (transient middle cerebral artery occlusion) model
Assay: pharmacodynamic effects in rat tMCAO model
Format: in vivo, SD rats
Conditions: for Infarct size (%): 24 h; for Neurological function score: 24 h after administration, total score 16; for Infarct size improvement rate (%) / Neurological function improvement rate (%): versus normal saline model group; for efficacy: medium dose (1 nmol/g)
[1] = 0.3 nmol/g single tail vein injection 1 h after filament insertion
[2] = 1 nmol/g single tail vein injection 1 h after filament insertion
[3] = 3 nmol/g single tail vein injection 1 h after filament insertion

For `CC(C)[C@H](NC(=O)[C@H](CC(=O)O)NC(=O)[C@@H](NC(=O)[C@@H](NC(=O)[C@@H](NC(=O)[C@@H](NC(=O)[C@H](CCN)NC(=O)C(C)(C)NC(=O)CNC(=O)[C@@H](CCCNC(=N)N)NC(=O)[C@H](CCCNC(=N)N)NC(=O)[C@H](CCCNC(=N)N)NC(=O)[C@H](CCC(N)=O)NC(=O)[C@@H](CCCNC(=N)N)NC(=O)[C@H](CCCNC(=N)N)NC(=O)[C@H](CCCCN)NC(=O)[C@H](CCCCN)NC(=O)[C@H](N)CCCNC(=N)N)[C@@H](C)O)C(C)(C)C)C(C)(C)C)[C@@H](C)O)C(=O)O` [Polypeptide compound 22, r-K-K-R-r-Q-R-R-r-G-Aib-Dab-T-Tle-Tle-T-D-V] (H-[dR]KKR[dR]QRR[dR]G[Aib][Dab]T[Tle][Tle]TDV-OH), the “Infarct size (%)” value [1] was 19.64±6.93%, the Neurological function score (0.3 nmol/g) was 7.57±1.62 and the “Infarct size improvement rate (%)” value (0.3 nmol/g) was 21.4%. For the same compound, the “Neurological function improvement rate (%)” value (0.3 nmol/g) was 11.7%, the “Infarct size (%)” value [2] was 17.84±6.23 % and the Neurological function score (1 nmol/g) was 7±1.41. For the same compound, the “Infarct size improvement rate (%)” value (1 nmol/g) was 28.6%, the “Neurological function improvement rate (%)” value (1 nmol/g) was 18.3% and the “Infarct size (%)” value [3] was 15.97±5.16 %. For the same compound, the Neurological function score (3 nmol/g) was 6.86±1.07, the “Infarct size improvement rate (%)” value (3 nmol/g) was 36.1% and the “Neurological function improvement rate (%)” value (3 nmol/g) was 20.0%. The efficacy was “comparable to the efficacy of the positive drug NA-1 at the high dose (3 nmol/g)”.

With `CC(C)[C@H](NC(=O)[C@H](CC(=O)O)NC(=O)[C@@H](NC(=O)[C@@H](NC(=O)[C@@H](NC(=O)[C@@H](NC(=O)[C@H](CCN)NC(=O)C(C)(C)NC(=O)CNC(=O)[C@@H](CCCNC(=N)N)NC(=O)[C@@H](CCCNC(=N)N)NC(=O)[C@@H](CCCNC(=N)N)NC(=O)[C@@H](CCC(N)=O)NC(=O)[C@@H](CCCNC(=N)N)NC(=O)[C@@H](CCCNC(=N)N)NC(=O)[C@@H](CCCCN)NC(=O)[C@@H](CCCCN)NC(=O)[C@@H](CCCNC(=N)N)NC(=O)CNC(=O)[C@H](N)Cc1ccc(O)cc1)[C@@H](C)O)C(C)(C)C)C(C)(C)C)[C@@H](C)O)C(=O)O` [Polypeptide compound 14, y-G-r-k-k-r-r-q-r-r-r-G-Aib-Dab-T-Tle-Tle-T-D-V] (H-[dY]G[dR][dK][dK][dR][dR][dQ][dR][dR][dR]G[Aib][Dab]T[Tle][Tle]TDV-OH) the “Infarct size (%)” value [1] was 13.2±7.08 %, the Neurological function score (0.3 nmol/g) was 8.30±1.89 and the “Infarct size improvement rate (%)” value (0.3 nmol/g) was 41.6%. For the same compound, the “Neurological function improvement rate (%)” value (0.3 nmol/g) was 11.7%, the “Infarct size (%)” value [2] was 12.2±6.47 % and the Neurological function score (1 nmol/g) was 7.30±2.06. For the same compound, the “Infarct size improvement rate (%)” value (1 nmol/g) was 46.0%, the “Neurological function improvement rate (%)” value (1 nmol/g) was 22.3% and the “Infarct size (%)” value [3] was 10.6±4.23 %. For the same compound, the Neurological function score (3 nmol/g) was 7.10±1.52, the “Infarct size improvement rate (%)” value (3 nmol/g) was 53.1% and the “Neurological function improvement rate (%)” value (3 nmol/g) was 24.5%. The efficacy was “comparable to the efficacy of the positive drug NA-1 at the high dose (3 nmol/g)”.
